PubChem BioAssay AID504744, Drosophila RNAi Screening Center – 2011
Screen: 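Uncover factors, including feedback loops, that control dAkt activation in fly cells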 (primary screen). System: Drosophila Kc167 cells. Reagents: long dsRNA against Drosophila genes, 250 ng dsRNA per well of a 384-well plate. Timing: 3 days of knock-down, then overnight serum-free starvation before stimulation. Conditions: bovine insulin at 387 nM for 10 minutes after 12 h without serum. Read-out: 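In-cell antibody fluorescence for phospho-dAkt in each well over DNA-dye signal, with log2 residuals expressed as z-scores adjusted for cell count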. Active means: 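Hit in the insulin screen when the two-replicate mean z-score is more extreme than plus or minus 2.5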.
The deposit covers about 23,000 reagents; this is a random part of those with a known target gene and a result. Of all reagents, 98 (0.43%) were called active. 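Only hit calls are given; the phospho-dAkt signals, z-scores and hit direction were not deposited.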 Names joined by + are all predicted targets of the reagent. Reagent sequences are not shown.

| predicted target | DRSC id | outcome |
| --- | --- | --- |
| Rfx | DRSC16820 | inactive |
| CG31769 | DRSC01361 | inactive |
| CG12391 | DRSC06147 | inactive |
| Gyc89Db (Guanylyl cyclase at 89Db) | DRSC15009 | inactive |
| Dora (Dorado) | DRSC19614 | inactive |
| Dora (Dorado) | DRSC19781 | inactive |
| Dora (Dorado) | DRSC20034 | inactive |
| Dora (Dorado) | DRSC20035 | inactive |
| Ror | DRSC03414 | inactive |
| Or7a (Odorant receptor 7a) | DRSC18691 | inactive |
| Cad96Cb (Cadherin 96Cb) | DRSC14243 | inactive |
| Cad96Cb (Cadherin 96Cb) | DRSC14665 | inactive |
| Pal1 (Peptidyl-alpha-hydroxyglycine-alpha-amidating lyase 1) | DRSC06106 | inactive |
| galectin | DRSC00305 | inactive |
| cuff (cutoff) | DRSC06315 | inactive |
| tRNA:Leu-CAA-2-3 (transfer RNA:Leucine-CAA 2-3) | DRSC13633 | inactive |
| CG15818 | DRSC02505 | inactive |
| tth (toothrin) | DRSC19435 | inactive |
| clumsy | DRSC03111 | inactive |
| CtIP (CTBP-interacting protein) | DRSC11785 | inactive |
| CG32006 | DRSC21768 | inactive |
| alpha-Spec (alpha Spectrin) | DRSC08704 | inactive |
| inaF-B + inaF-D + inaF-C + 1 more | DRSC20342 | inactive |
| Son (Son RNA binding protein) | DRSC16400 | inactive |
| CG31908 | DRSC21864 | inactive |
| Atf3 (Activating transcription factor 3) | DRSC17225 | inactive |
| CG17600 | DRSC20638 | inactive |
| CG17600 | DRSC20640 | inactive |
| CG17600 | DRSC22753 | inactive |
| CG15767 | DRSC18073 | inactive |
| cGlr2 (cGAS-like receptor 2) | DRSC04017 | inactive |
| w (white) | DRSC17233 | inactive |
| w (white) | DRSC18850 | inactive |
| Pgi (Phosphoglucose isomerase) | DRSC07507 | inactive |
| scu (scully) | DRSC20369 | inactive |
| CG2975 | DRSC00556 | inactive |
| CG5569 | DRSC04514 | active |
| CG18249 | DRSC15318 | inactive |
| CG16868 | DRSC06633 | inactive |
| CG13640 | DRSC14639 | inactive |
| CG8306 | DRSC07141 | inactive |

Entries listed above with an active call (1):
| predicted target | DRSC id | outcome |
| --- | --- | --- |
| CG5569 | DRSC04514 | active |

Continued:
| predicted target | DRSC id | outcome |
| --- | --- | --- |
| CG11679 | DRSC19415 | inactive |
| mRpL14 (mitochondrial ribosomal protein L14) | DRSC18597 | inactive |
| CG7156 | DRSC16207 | inactive |
| rsh (radish) | DRSC18966 | inactive |
| rsh (radish) | DRSC19816 | inactive |
| CG5033 | DRSC07410 | inactive |
| betaNACtes4 (Nascent-associated complex beta-subunit-like, testis 4) | DRSC19801 | inactive |
| Adck5 (aarF domain containing kinase 5) | DRSC10890 | inactive |
| CG2924 | DRSC18525 | inactive |
| Ude (Uracil-DNA degrading factor) | DRSC15324 | inactive |
| CG9550 | DRSC03262 | inactive |
| CG4712 | DRSC06882 | inactive |
| Cyp4ad1 (Cytochrome P450 4ad1) | DRSC07369 | inactive |
| CG13722 | DRSC08331 | inactive |
| CG13722 | DRSC21616 | inactive |
| Chchd3 (Coiled-coil-helix-coiled-coil-helix domain containing 3) | DRSC16981 | inactive |
| Liprin-alpha | DRSC02132 | inactive |
| CG30062 | DRSC21737 | inactive |
| CG6785 | DRSC02993 | inactive |
| CG8562 | DRSC10995 | inactive |
| SNCF (SoxNeuro Co-Factor) | DRSC10115 | inactive |
| CG14075 | DRSC10080 | inactive |
| CG13689 | DRSC00358 | inactive |
